Assay results published in paper PMC5088687.
No constants are given. Whether binding was seen depends on the method and setting. Binding seen in cells or lysates may run through a third protein. Some results given as binding are weak or reduced against the parent protein; the word gives no strength. Tags and fused reporters may be left off the sequences shown.

Sequences of proteins named here, by UniProt entry; tags and fusion partners are left off.
UniProt Q61818: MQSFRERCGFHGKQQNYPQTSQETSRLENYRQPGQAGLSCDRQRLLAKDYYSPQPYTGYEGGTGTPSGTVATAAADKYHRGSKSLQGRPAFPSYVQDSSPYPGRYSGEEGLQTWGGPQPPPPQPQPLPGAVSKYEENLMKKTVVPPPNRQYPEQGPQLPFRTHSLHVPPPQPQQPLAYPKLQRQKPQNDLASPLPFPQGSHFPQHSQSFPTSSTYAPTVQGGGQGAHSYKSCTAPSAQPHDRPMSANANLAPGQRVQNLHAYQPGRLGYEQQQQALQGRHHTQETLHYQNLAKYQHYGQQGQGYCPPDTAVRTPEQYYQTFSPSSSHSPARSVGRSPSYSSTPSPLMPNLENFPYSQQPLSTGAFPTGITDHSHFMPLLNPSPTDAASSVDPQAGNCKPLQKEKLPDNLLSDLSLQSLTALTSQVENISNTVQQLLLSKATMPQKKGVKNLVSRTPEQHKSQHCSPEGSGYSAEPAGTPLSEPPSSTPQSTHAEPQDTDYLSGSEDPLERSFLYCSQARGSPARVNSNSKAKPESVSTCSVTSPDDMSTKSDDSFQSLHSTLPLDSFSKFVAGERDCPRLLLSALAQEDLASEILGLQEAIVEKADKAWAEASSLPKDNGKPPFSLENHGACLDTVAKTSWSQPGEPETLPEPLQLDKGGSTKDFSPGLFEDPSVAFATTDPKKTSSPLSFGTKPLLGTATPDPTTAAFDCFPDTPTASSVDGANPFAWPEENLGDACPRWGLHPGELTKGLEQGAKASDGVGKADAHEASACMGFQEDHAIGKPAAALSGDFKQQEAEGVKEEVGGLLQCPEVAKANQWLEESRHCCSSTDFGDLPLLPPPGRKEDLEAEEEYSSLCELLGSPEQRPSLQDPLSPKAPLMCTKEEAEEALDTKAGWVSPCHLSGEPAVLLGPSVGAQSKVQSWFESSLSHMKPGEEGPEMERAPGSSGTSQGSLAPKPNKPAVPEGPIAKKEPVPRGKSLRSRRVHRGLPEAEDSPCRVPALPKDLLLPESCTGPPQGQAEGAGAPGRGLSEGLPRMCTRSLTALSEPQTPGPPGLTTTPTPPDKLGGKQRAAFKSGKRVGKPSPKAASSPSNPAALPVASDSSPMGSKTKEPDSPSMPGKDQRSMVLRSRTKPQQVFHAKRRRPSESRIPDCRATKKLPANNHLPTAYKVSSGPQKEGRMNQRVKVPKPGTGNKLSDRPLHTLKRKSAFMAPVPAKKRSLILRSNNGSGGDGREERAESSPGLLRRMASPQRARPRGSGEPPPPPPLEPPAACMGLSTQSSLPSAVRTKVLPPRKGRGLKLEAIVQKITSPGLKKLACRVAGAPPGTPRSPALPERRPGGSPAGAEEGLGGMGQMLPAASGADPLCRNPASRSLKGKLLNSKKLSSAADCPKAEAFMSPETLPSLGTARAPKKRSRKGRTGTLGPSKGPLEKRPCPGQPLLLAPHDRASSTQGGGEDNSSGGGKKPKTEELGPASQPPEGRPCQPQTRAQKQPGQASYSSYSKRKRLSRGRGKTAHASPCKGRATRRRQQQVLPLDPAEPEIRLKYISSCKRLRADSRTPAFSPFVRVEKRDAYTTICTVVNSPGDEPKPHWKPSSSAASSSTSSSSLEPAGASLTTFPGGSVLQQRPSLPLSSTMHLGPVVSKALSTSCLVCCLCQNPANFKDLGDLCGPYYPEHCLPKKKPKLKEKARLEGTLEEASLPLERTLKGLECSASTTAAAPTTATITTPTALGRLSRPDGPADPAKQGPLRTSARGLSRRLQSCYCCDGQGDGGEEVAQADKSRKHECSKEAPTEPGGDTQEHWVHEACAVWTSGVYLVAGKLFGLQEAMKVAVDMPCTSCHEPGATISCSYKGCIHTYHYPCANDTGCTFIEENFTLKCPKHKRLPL

Target: Full-length Rai1 in pCMV-3xFLAG (mouse) (UniProt Q61818)
Assay: co-IP; lysate of co-transfected HEK293 cells; 3xFLAG-Rai1 purified with EZview FLAG-M2 beads; western blot with rat anti-HA

- binding: binds
B1: ZBTB17/MIZ1 in pCMV-HA (protein, UniProt Q13105 1-803)
chain: MDFPQHSQHVLEQLNQQRQLGLLCDCTFVVDGVHFKAHKAVLAACSEYFKMLFVDQKDVVHLDISNAAGLGQVLEFMYTAKLSLSPENVDDVLAVATFLQMQDIITACHALKSLAEPATSPGGNAEALATEGGDKRAKEEKVATSTLSRLEQAGRSTPIGPSRDLKEERGGQAQSAASGAEQTEKADAPREPPPVELKPDPTSGMAAAEAEAALSESSEQEMEVEPARKGEEEQKEQEEQEEEGAGPAEVKEEGSQLENGEAPEENENEESAGTDSGQELGSEARGLRSGTYGDRTESKAYGSVIHKCEDCGKEFTHTGNFKRHIRIHTGEKPFSCRECSKAFSDPAACKAHEKTHSPLKPYGCEECGKSYRLISLLNLHKKRHSGEARYRCEDCGKLFTTSGNLKRHQLVHSGEKPYQCDYCGRSFSDPTSKMRHLETHDTDKEHKCPHCDKKFNQVGNLKAHLKIHIADGPLKCRECGKQFTTSGNLKRHLRIHSGEKPYVCIHCQRQFADPGALQRHVRIHTGEKPCQCVMCGKAFTQASSLIAHVRQHTGEKPYVCERCGKRFVQSSQLANHIRHHDNIRPHKCSVCSKAFVNVGDLSKHIIIHTGEKPYLCDKCGRGFNRVDNLRSHVKTVHQGKAGIKILEPEEGSEVSVVTVDDMVTLATEALAATAVTQLTVVPVGAAVTADETEVLKAEISKAVKQVQEEDPNTHILYACDSCGDKFLDANSLAQHVRIHTAQALVMFQTDADFYQQYGPGGTWPAGQVLQAGELVFRPRDGAEGQPALAETSPTAPECPPPAE
